In patent US20240100133A1, “ENZYMATICALLY INACTIVE GRANZYME A AND USES THEREFORE” (Saint Louis University, priority 2022, published 2024):
At least one structure is not confirmed: it was looked up by name or label, or the drawing left a doubt.

Tests used:
[1] = system: Connaught BCG within primary CD14+ human monocytes; assay type: cell-based
[2] = system: Mtb H37Rv within primary CD14+ human monocytes; assay type: cell-based, Mycobacterium tuberculosis; settings: Rutin 50 μM combined with GzmA

C[C@@H]1O[C@@H](OC[C@H]2O[C@@H](Oc3c(-c4ccc(O)c(O)c4)oc4cc(O)cc(O)c4c3=O)[C@H](O)[C@@H](O)[C@@H]2O)[C@H](O)[C@H](O)[C@H]1O [Rutin, reference compound]
effect of PDIA1 inhibitor on GzmA-mediated mycobacterial inhibition, BCG ([1]; PACMA-31 200 nM or Rutin 50 μM pretreatment combined with GzmA-WT): enhanced GzmA-mediated inhibition
intracellular bacterial burden, PDIA1 inhibitor alone ([1]; PACMA-31 200 nM or Rutin 50 μM, 30 min pretreatment, no GzmA): does not impact mycobacterial burden
effect of PDIA1 inhibitor on GzmA-mediated mycobacterial inhibition, Mtb [2]: GzmA enhancement
